In the supplement of paper PMC10470496:
Where a name gives a salt, the structure may show the parent alone. This is one part of the list. Single values are uncertain, as repeats are few or missing.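 The strains were three CDC resistance-bank clinical C. auris isolates from clades III, IV and I, cultured in RPMI-1640 at 35°C. Growth was background-corrected OD600 versus vehicle-only wells on the same plate. A hit needed >50% inhibition in two or more strains plus a plate-corrected B-score exceeding 0.1.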

Experiments:
Experiment in all cases: growth relative to vehicle control (OD600 ratio) (fraction); higher = less inhibition
Settings in all cases: 24 h
C. auris AR-384 = system: C. auris AR-384
C. auris AR-386 = system: C. auris AR-386
C. auris AR-387 = system: C. auris AR-387

SMILES	growth (C. auris AR-384; 1 µM)	growth (C. auris AR-384; 10 µM)	growth (C. auris AR-386; 1 µM)	growth (C. auris AR-386; 10 µM)	growth (C. auris AR-387; 1 µM)	growth (C. auris AR-387; 10 µM)
Cc1ccc([C@@H]2O[C@H](CO)[C@@H](O)[C@H](O)[C@H]2O)cc1Cc1ccc(-c2ccc(F)cc2)s1 [Canagliflozin]	1.43	1.03	0.91	0.99	0.97	0.98
CCOC(N)=O [Urethane]	1.15	0.88	0.89	1.06	1.07	0.75
Nc1ccn([C@@H]2O[C@H](CO)[C@@H](O)[C@@H]2O)c(=O)n1 [Cytarabine]	0.78	1.01	0.87	0.97	0.7	1.18
CCCCC(=O)N(Cc1ccc(-c2ccccc2-c2nnn[nH]2)cc1)[C@H](C(=O)O)C(C)C [Valsartan]	1.1	0.88	0.91	0.97	0.65	0.56
CCc1c(Cl)c(O)c(Cl)c(O)c1C(=O)O[C@H]1[C@H](O)[C@H](OC)[C@H](OC/C2=C\C=C\C[C@H](O)/C(C)=C/[C@H](CC)[C@@H](O[C@@H]3OC(C)(C)[C@@H](OC(=O)C(C)C)[C@H](O)[C@@H]3O)/C(C)=C/C(C)=C/C[C@@H]([C@@H](C)O)OC2=O)O[C@@H]1C [Fidaxomicin]	0.89	1.07	1.05	1.1	1.21	1.26
Nc1nc(=O)c2nc(CNc3ccc(C(=O)N[C@@H](CCC(=O)O)C(=O)O)cc3)cnc2[nH]1 [Folic acid]	1.16	1.2	1.17	1.04	1.02	0.89
CCCCNC(=O)NS(=O)(=O)c1ccc(C)cc1 [Tolbutamide]	1.05	1.2	1.09	1.11	1.43	1.29
CN(C)CCC(c1ccccc1)c1ccccn1 (stereo unspecified) [Pheniramine Maleate]	0.73	0.7	0.56	0.88	0.83	0.9
COc1cc(C)c(/C=C/C(C)=C/C=C/C(C)=C/C(=O)O)c(C)c1C [Acitretin]	1.07	1.38	1.19	0.67	0.99	1.01
CC1=C(C(=O)O)N2C(=O)[C@@H](NC(=O)[C@H](N)C3=CCC=CC3)[C@H]2SC1 [Cefradine]	1.34	1.29	1.13	1.25	1.22	1.24
Cc1c(OCC(F)(F)F)ccnc1C[S@@+]([O-])c1nc2ccccc2[nH]1 [Dexlansoprazole]	0.91	1.11	1.11	1.13	1.04	0.95
CCCC(=O)OCOC(=O)C1=C(C)NC(C)=C(C(=O)OC)C1c1cccc(Cl)c1Cl (stereo unspecified) [Clevidipine Butyrate]	1.33	1.19	1.22	1	0.9	0.81
N=C(N)N/N=C/c1c(Cl)cccc1Cl [Guanabenz Acetate]	0.81	0.65	1	0.72	0.74	0.78
CC(=O)OCC(=O)[C@@]1(O)CC[C@H]2[C@@H]3CCC4=CC(=O)CC[C@]4(C)[C@H]3C(=O)C[C@@]21C [Cortisone acetate]	0.82	0.94	0.9	0.63	0.73	0.74
C[C@H](O)C(=O)Nc1c(I)c(C(=O)NC(CO)CO)c(I)c(C(=O)NC(CO)CO)c1I [Iopamidol]	0.93	0.75	0.82	0.94	0.97	0.85
COC(=O)N[C@H](C(=O)N[C@@H](Cc1ccccc1)[C@@H](O)CN(Cc1ccc(-c2ccccn2)cc1)NC(=O)[C@@H](NC(=O)OC)C(C)(C)C)C(C)(C)C [Atazanavir]	0.82	0.84	0.92	0.48	0.99	1.01
CCCCc1ncc(/C=C(\Cc2cccs2)C(=O)O)n1Cc1ccc(C(=O)O)cc1 [Eprosartan Mesylate]	0.8	0.98	0.79	1.04	0.9	0.88
O=C(CCCN1CCC(O)(c2ccc(Cl)cc2)CC1)c1ccc(F)cc1 [Haloperidol]	0.99	0.79	0.73	0.94	0.78	1.21
CN(C)C/C=C/C(=O)Nc1cc2c(Nc3ccc(F)c(Cl)c3)ncnc2cc1O[C@H]1CCOC1 [Afatinib (BIBW2992) Dimaleate]	0.93	0.77	0.7	0.95	0.85	0.95
Nc1ncnc2c1ncn2[C@@H]1O[C@H](CO)[C@@H](O)[C@@H]1O [Vidarabine]	0.98	0.94	0.69	0.79	0.68	0.98
C[C@H]1[C@H](NC(=O)/C(=N\OC(C)(C)C(=O)O)c2csc(N)n2)C(=O)N1S(=O)(=O)O [Aztreonam]	0.75	1.27	1.15	0.82	0.88	0.9

Ordered by heavy-atom count (smallest number first): some entries from above
SMILES	growth (C. auris AR-384; 1 µM)	growth (C. auris AR-384; 10 µM)	growth (C. auris AR-386; 1 µM)	growth (C. auris AR-386; 10 µM)	growth (C. auris AR-387; 1 µM)	growth (C. auris AR-387; 10 µM)
N=C(N)N/N=C/c1c(Cl)cccc1Cl [Guanabenz Acetate]	0.81	0.65	1	0.72	0.74	0.78
CCCCNC(=O)NS(=O)(=O)c1ccc(C)cc1 [Tolbutamide]	1.05	1.2	1.09	1.11	1.43	1.29
C[C@H](O)C(=O)Nc1c(I)c(C(=O)NC(CO)CO)c(I)c(C(=O)NC(CO)CO)c1I [Iopamidol]	0.93	0.75	0.82	0.94	0.97	0.85
